Laboratory results: PMC6286387, “Physical and thermodynamic characterization of the rice gibberellin receptor/gibberellin/DELLA protein complex” (Scientific Reports, 2018)

Protein sequences, listed by entry. Tags and fused reporters are not part of them. Lines headed by an entry give the natural chain unless they say otherwise; changes in a name come on top.
UniProt Q7G7J6: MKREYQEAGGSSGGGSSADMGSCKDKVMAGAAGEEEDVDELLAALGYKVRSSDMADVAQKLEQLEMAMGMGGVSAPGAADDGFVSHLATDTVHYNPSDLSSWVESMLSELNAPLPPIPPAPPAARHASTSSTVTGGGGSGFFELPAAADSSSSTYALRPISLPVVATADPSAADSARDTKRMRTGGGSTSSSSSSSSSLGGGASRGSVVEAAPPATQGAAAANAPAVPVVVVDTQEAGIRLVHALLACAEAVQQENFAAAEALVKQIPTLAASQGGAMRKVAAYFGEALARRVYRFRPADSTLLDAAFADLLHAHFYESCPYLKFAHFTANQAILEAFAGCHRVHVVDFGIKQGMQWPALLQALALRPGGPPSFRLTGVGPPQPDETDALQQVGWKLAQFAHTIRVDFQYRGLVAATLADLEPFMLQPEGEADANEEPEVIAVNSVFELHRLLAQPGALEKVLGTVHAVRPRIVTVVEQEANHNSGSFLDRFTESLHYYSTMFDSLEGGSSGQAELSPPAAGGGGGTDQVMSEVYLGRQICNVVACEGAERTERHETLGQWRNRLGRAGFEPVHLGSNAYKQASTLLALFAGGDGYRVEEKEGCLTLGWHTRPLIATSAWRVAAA

Biological target: SLR1(M28-A112) ΔTVHYNP(L93-E104) (rice (Oryza sativa)) (UniProt Q7G7J6)
Experiment: ITC; 10 μl aliquants of 400 μM OsGID1/GA3 into 1.4482 ml of 50 μM SLR1 variant, 30 °C, 20 mM sodium phosphate (pH 7.5), 150 mM NaCl, 2.0 mM β-ME, 0.1 mM GA3; both purified

B1: OsGID1 (rice gibberellin receptor GID1), Trx-free, used as the OsGID1/GA3 complex (receptor, rice (Oryza sativa), UniProt Q6L545 1-354, looked up)
chain: MAGSDEVNRNECKTVVPLHTWVLISNFKLSYNILRRADGTFERDLGEYLDRRVPANARPLEGVSSFDHIIDQSVGLEVRIYRAAAEGDAEEGAAAVTRPILEFLTDAPAAEPFPVIIFFHGGSFVHSSASSTIYDSLCRRFVKLSKGVVVSVNYRRAPEHRYPCAYDDGWTALKWVMSQPFMRSGGDAQARVFLSGDSSGGNIAHHVAVRAADEGVKVCGNILLNAMFGGTERTESERRLDGKYFVTLQDRDWYWKAYLPEDADRDHPACNPFGPNGRRLGGLPFAKSLIIVSGLDLTCDRQLAYADALREDGHHVKVVQCENATVGFYLLPNTVHYHEVMEEISDFLNANLYY
notes: Gibberellin receptor GID1 of rice (Oryza sativa); theoretical MW of the dimer printed as 79.2 kDa; The printed mass (39.6 kDa a monomer) fits the whole protein; source: recombinant, purified
  binding: no binding (tested: 50 μM SLR1 mutants and 400 μM OsGID1/GA3)

Results are given in words; binding and its absence hold for the method and conditions named.
